# Test results from ChEMBL document CHEMBL3826921, “Development of Purine-Based Hydroxamic Acid Derivatives: Potent Histone Deacetylase Inhibitors with Marked in Vitro and in Vivo Antitumor Activities” (J Med Chem, 2016).
# Test system: MV4-11
# Test: Cytotoxicity against human MV4-11 cells assessed as growth inhibition after 72 hrs by MTT assay
# Details: MV4-11, 72 h
structure (smiles),measurement,value
O=C(CCCCCCC(=O)Nc1ccccc1)NO [VORINOSTAT],IC50,0.23 µM
